Results are given in words; binding and its absence hold for the method and conditions named. Binding seen in cells or lysates may run through a third protein. A result given as binding can be weak or reduced; the word gives no strength. Sequences can lack the tags named with a protein.
Molecular target: TorsinA-ΔE-GFP (human) (UniProt O14656)
Experiment: co-IP

The chains behind the UniProt entries cited, without tags or fusion partners. Where a name states a change or a piece, a line headed by the entry shows the natural chain unless it says otherwise.
UniProt O14656: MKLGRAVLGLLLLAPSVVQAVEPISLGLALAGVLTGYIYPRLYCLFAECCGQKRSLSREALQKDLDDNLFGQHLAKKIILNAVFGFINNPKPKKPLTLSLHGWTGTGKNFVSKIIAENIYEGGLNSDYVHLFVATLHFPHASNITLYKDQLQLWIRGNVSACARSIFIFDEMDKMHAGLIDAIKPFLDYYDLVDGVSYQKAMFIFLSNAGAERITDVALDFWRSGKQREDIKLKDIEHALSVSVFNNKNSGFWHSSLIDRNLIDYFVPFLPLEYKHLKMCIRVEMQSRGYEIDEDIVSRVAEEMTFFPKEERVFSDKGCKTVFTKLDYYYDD
UniProt P39685: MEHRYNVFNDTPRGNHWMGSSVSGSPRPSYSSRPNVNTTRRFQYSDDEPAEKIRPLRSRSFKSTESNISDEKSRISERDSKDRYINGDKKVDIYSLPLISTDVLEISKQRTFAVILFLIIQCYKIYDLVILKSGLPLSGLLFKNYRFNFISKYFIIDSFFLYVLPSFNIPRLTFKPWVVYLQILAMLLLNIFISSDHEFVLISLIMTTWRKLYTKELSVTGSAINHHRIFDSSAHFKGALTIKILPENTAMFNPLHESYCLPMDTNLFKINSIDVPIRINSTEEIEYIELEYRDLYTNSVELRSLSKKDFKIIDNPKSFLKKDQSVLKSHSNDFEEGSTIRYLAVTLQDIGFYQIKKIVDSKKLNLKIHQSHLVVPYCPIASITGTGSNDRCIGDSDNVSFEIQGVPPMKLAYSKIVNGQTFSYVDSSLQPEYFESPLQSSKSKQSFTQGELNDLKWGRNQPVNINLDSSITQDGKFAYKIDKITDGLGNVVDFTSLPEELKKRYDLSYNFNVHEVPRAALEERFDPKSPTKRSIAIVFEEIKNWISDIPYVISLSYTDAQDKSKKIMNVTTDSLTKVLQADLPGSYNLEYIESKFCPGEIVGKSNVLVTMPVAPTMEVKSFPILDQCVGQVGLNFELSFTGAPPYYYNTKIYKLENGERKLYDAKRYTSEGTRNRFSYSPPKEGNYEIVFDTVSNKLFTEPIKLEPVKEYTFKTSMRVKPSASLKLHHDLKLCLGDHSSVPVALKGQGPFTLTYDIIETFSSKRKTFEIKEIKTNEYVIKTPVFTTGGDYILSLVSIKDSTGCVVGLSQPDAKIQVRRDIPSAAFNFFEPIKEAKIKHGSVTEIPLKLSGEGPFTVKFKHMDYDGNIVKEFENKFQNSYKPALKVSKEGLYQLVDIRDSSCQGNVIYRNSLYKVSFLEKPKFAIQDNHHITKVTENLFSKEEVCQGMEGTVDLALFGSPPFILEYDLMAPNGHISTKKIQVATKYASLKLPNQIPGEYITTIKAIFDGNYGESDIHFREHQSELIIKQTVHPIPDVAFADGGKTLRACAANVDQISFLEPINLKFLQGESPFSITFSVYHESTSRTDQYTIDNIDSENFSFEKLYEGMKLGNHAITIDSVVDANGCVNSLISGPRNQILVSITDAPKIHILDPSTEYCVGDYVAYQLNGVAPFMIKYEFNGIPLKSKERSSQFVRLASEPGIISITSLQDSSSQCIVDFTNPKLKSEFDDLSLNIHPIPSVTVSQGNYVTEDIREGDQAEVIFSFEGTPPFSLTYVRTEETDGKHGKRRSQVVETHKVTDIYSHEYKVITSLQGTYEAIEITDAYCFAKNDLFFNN

binding	Molecule
no binding	Pom152 (from UniProt P39685 1-1337)
binds	Mps3-HA (protein, UniProt P47069 1-682) MNNSNEHRREEAGAANEQMPYNKAVKSAYADVLKDKMNREQEISLRAIKKGIYTDGGETDNYDMDKENDSAYEMFKKNLDFPLDQHNDDDDDDPYIEDNGQETDGYSDEDYTDEADKSFIEDSDSDSYDLESNSDFEENLESSGEAKKLKWRTYIFYGGLFFVFYFFGSFLMTTVKNNDLESHSSGATSSPGKSFSNLQKQVNHLYSELSKRDEKHSSELDKTVKIIVSQFEKNIKRLLPSNLVNFENDINSLTKQVETISTSMSELQRRNHKFTVENVTQWQDQLVKQLDTHLPQEIPVVINNSSSLLIIPELHNYLSALISDVIESPGIGTAGSAESRWEYDLNRYVKEILSNELQYIDKDYFIQEMNRRLQSNKQEIWEEITNRLETQQQQQQQQVQQDYSNVPQQYSSILMKRLIHQIYNSNQHQWEDDLDFATYVQGTKLLNHLTSPTWRQGSGVQPIELLTDSKQSSSTYWQCENEPGCSWAIRFKTPLYLTKISYMHGRFTNNLHIMNSAPRLISLYVKLSQTKEIKALQTLANQYGFGQHHKRDRNYIKIAKFEYRLTDSRIRQQMYLPPWFIQLKPLVRSIVFQVDENYGNKKFISLRKFIINGVTPQDLQIIENNEFPVLLGDTPEYGVTQNTDEGKRKVLLSKPPYASSSTSTKFHPASNVPSFGQDELDQ
